Results are given in words; binding and its absence hold for the method and conditions named. Some binding calls cover weakened binding; strength is not graded here.
Key:
[1] = biological target: T1, wild-type murine H-Ras expressed as the DNA-binding fusion protein (murine) (UniProt P04386+Q61411); test: yeast two-hybrid, Rin2 segment as GAL4-activation domain fusion, H-Ras as DNA-binding fusion
[2] = biological target: T1, wild-type murine H-Ras expressed as the DNA-binding fusion protein (murine); test: yeast two-hybrid, Rin2 as GAL4-activation domain fusion, H-Ras as DNA-binding fusion

By UniProt entry, the sequences of proteins in these tests, tags left out. Where a name states a change or a piece, a line headed by the entry shows the natural chain unless it says otherwise.
UniProt P04386: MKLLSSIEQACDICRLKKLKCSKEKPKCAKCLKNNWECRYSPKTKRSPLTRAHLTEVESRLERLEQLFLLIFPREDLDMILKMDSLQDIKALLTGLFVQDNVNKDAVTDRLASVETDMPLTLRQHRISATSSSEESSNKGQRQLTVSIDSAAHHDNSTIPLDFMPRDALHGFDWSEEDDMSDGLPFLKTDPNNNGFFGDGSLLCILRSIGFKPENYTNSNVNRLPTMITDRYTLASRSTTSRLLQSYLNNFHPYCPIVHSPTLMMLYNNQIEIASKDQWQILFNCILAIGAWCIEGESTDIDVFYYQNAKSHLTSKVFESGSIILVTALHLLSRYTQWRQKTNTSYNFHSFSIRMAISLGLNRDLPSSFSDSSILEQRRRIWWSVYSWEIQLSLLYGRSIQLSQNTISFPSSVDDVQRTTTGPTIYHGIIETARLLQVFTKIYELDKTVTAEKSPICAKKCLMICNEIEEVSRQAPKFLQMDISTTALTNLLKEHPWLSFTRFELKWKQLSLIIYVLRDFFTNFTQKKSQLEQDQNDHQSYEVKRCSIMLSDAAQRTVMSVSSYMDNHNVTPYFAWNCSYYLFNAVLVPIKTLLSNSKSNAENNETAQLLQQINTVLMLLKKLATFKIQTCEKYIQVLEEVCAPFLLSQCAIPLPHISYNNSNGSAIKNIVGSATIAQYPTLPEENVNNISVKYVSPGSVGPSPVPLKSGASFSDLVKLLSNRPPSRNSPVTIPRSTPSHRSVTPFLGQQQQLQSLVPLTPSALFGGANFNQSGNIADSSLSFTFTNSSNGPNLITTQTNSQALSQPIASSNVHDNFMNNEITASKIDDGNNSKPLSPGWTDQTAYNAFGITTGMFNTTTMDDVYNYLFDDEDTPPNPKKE
UniProt Q9JM13: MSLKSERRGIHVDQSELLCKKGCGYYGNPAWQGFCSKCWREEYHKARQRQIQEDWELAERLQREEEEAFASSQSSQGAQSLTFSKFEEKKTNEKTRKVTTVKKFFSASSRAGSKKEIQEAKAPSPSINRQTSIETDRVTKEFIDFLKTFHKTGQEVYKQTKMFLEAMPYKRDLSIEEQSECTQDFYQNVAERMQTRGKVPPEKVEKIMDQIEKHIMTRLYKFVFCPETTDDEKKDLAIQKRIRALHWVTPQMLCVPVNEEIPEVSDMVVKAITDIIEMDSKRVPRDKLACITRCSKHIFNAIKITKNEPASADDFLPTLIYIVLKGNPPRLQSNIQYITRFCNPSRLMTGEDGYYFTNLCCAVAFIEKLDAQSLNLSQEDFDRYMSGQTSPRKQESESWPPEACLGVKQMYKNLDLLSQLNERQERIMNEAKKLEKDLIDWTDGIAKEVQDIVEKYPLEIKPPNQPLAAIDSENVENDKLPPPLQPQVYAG

binding [1] | binding [2] | Substance
binds |  | C-terminal region of murine Rin2 expressed as a GAL4-activation domain fusion protein (from UniProt Q9JM13 381-491)
binds |  | N-terminal region of murine Rin2 expressed as a GAL4-activation domain fusion protein (from UniProt Q9JM13 1-202)
 | binds | full-length murine Rin2 (residues 1-491) expressed as a GAL4-activation domain fusion protein (from UniProt Q9JM13 1-491)
binds |  | region of murine Rin2 containing the three GBH domains (residues 203-380) expressed as a GAL4-activation domain fusion protein (from UniProt Q9JM13 203-380)
